Experiment: general procedure: Fmoc solid-phase peptide synthesis; Rink Amide MBHA; HBTU/HOBt/DIEA
Details: whole synthesis, 220 nm, scale 0.25 mmole

## [Lys4, Leu17, Thr30, Gln34]hPP
  final HPLC purity: 95%

Reference: patent publication US7851590B2 (7TM Pharma A/S, priority 2005, dated 2010)
